This note sets out measurements from the supplement of paper PMC12024529.

Where a name gives a salt, the structure may show the parent alone. The list shows a part of the results. Part of the spread comes from offsets between plates or batches.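 Wild-type or misfolding-prone missense mutant B-domain-deleted factor VIII, fused to Gaussia luciferase, is stably expressed in HEK293 lines. Each score is (mean triplicate-well luminescence minus DMSO mean) divided by DMSO standard deviation. Hits score at least 2; lower scores could stem from decreased secretion or poorer cell viability.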

The assay relates to HEK293 p.N1941S BDD-FVIII-Gluc. Nature of the assay: secreted FVIII-Gluc luciferase Z-score vs DMSO control; higher = more FVIII-Gluc secretion. The conditions noted are these: 5 µM; 24 h.
Take `CC(C)(C#N)c1cc(Cn2cncn2)cc(C(C)(C)C#N)c1` [Anastrozole]: the “secreted FVIII-Gluc luciferase Z-score” value was inactive: -2.66.
For `C[C@]12CC[C@@H]3c4ccc(O)cc4CC[C@H]3[C@@H]1C[C@@H](O)[C@@H]2O` [Estriol], the “secreted FVIII-Gluc luciferase Z-score” value is inactive: -2.03.
The value for `OCC(CO)N[C@H]1C[C@](O)(CO)[C@@H](O)[C@H](O)[C@H]1O` [Voglibose] was active: 3.34; that for `CCC(=O)OCC(=O)[C@@]1(OC(=O)CC)[C@@H](C)C[C@H]2[C@@H]3CCC4=CC(=O)C=C[C@]4(C)[C@@]3(Cl)[C@@H](O)C[C@@]21C` [Beclomethasone dipropionate] was active: 3.44.
In the case of `Clc1ccc(C(c2ccccc2Cl)C(Cl)Cl)cc1` (stereo not given) [Mitotane (Lysodren)], the “secreted FVIII-Gluc luciferase Z-score” value was inactive: -0.882.
The value for `c1ccc2c(c1)CCCC2C1=NCCN1` (stereo not given) [tetrahydrozoline hydrochloride] was inactive: -1.32.
The figure for `Cc1nnc(C(C)C)n1C1C[C@H]2CC[C@@H](C1)N2CC[C@H](NC(=O)C1CCC(F)(F)CC1)c1ccccc1` (stereo in doubt) [Maraviroc] is inactive: 1.95.
The figure for `NC(N)=Nc1nc(CSCC/C(N)=N/S(N)(=O)=O)cs1` [Famotidine (Pepcid)] is inactive: -0.984; for `CC(C)c1nc(CN(C)C(=O)N[C@@H](CCN2CCOCC2)C(=O)N[C@H](CC[C@H](Cc2ccccc2)NC(=O)OCc2cncs2)Cc2ccccc2)cs1` [Cobicistat (GS-9350)] it is inactive: -1.75.
Turning to `Nc1ccc(C(=O)O)c(O)c1` [Aminosalicylate sodium], the “secreted FVIII-Gluc luciferase Z-score” value was inactive: 0.54.
